The values that follow come from US20040166530A1 (BAYLOR COLLEGE OF MEDICINE, published 2004).

By UniProt entry, the sequences of proteins in these tests, tags left out. Where a name states a change or a piece, a line headed by the entry shows the natural chain unless it says otherwise. Residues count along the entry.
UniProt P30283: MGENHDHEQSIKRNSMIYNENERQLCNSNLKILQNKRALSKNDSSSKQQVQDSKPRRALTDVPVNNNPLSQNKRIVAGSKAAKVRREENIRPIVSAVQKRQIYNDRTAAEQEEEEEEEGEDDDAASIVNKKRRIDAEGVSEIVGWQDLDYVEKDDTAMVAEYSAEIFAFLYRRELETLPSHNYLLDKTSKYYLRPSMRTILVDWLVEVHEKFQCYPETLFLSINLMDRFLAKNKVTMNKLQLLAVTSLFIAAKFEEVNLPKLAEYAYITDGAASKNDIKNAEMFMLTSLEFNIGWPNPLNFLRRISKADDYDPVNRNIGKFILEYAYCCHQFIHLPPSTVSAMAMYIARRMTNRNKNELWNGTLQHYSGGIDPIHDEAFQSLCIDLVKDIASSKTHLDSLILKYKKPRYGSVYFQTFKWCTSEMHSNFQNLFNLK
UniProt P00546: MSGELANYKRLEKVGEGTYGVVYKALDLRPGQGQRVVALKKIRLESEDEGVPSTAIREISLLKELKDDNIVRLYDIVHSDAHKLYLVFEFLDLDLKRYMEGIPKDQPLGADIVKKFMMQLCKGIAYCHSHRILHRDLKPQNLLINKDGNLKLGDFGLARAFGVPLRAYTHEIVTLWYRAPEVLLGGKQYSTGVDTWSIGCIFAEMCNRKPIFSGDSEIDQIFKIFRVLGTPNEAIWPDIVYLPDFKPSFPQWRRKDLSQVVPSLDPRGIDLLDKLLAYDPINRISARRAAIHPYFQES
UniProt P52286, residues 2-194: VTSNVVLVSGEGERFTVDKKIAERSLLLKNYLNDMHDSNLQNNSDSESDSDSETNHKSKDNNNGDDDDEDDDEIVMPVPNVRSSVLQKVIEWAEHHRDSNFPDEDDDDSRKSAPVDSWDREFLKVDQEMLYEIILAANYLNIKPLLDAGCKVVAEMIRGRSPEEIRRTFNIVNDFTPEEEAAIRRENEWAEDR
UniProt P38634: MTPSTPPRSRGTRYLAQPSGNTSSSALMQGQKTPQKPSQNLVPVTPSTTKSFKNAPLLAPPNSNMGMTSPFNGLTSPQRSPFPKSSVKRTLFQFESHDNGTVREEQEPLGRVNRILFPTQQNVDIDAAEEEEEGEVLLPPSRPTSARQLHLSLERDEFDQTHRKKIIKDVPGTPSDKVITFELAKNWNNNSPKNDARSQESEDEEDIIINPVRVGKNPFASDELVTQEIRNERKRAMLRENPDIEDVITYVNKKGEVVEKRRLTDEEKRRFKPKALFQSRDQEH

Assay [1] concerns the target Clb5/Gst-Cdc28HA(K-) complex (S. cerevisiae) (UniProt P30283+P00546). The assay can be described thus: co-purification on GSH-Sepharose from co-infected insect cells.
In assay [2] the target is T1, Myc-tagged Cdc53 (Cdc53^M) (S. cerevisiae, UniProt Q12018 1-815).
T1 construct: Expressed from baculovirus in insect cells; not shown: N-terminal Myc tag
T1 sequence (looked up): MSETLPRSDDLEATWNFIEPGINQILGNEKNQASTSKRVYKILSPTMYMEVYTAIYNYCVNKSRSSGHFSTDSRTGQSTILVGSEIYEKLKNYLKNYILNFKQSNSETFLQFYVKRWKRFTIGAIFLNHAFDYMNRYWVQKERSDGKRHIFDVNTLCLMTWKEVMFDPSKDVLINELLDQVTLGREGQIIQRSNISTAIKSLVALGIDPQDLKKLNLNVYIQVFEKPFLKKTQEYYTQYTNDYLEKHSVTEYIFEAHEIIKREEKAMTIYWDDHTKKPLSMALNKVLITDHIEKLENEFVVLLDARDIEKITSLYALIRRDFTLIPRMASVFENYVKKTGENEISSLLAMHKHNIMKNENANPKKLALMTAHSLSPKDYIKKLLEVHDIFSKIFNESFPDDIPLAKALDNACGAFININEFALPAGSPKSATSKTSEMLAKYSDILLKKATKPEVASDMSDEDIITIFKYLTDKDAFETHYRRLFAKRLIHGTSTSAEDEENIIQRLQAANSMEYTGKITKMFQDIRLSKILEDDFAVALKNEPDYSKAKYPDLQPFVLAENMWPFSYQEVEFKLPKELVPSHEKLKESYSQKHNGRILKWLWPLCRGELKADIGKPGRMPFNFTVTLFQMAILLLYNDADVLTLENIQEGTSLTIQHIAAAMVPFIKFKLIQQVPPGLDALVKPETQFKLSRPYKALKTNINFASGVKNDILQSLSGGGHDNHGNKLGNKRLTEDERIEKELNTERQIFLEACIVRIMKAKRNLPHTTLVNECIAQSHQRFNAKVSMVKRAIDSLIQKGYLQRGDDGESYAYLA
The assay can be described thus: co-immunoprecipitation from co-infected insect cells, immunoblot (FIG. 4A). In general terms: Immunoblotting shows a protein as a band on a membrane.

Assay [3] deals with Skp1 (S. cerevisiae) (UniProt P52286). The assay is described as above.
Assay [4] concerns the target T1, Myc-tagged Cdc53 (Cdc53^M). The assay can be described thus: co-immunoprecipitation from co-infected insect cells, immunoblot.
Assay [5] has as its target Skp1 (S. cerevisiae) (UniProt P52286). Described as above.

No constants are given. Whether binding was seen depends on the method and setting. Binding seen in cells or lysates may run through a third protein. Some entries that bind do so weakly or less than the wild type. For some assays here: Where a sequence is shown, tags or fusion partners need not be part of it.

Consider “unphosphorylated Sic1 (from UniProt P38634 1-284)”, for which the binding result in assay [1] is recorded as “binds”.

B1: Gene 10-tagged Grr1 (Grr1^G10) (protein, S. cerevisiae, UniProt P24814 1-1151, looked up, not shown: small tags and cut ends)
chain: MDQDNNNHNDSNRLHPPDIHPNLGPQLWLNSSGDFDDNNNNNNNNNNNNSTRPQMPSRTRETATSERNASEVRDATLNNIFRFDSIQRETLLPTNNGQPLNQNFSLTFQPQQQTNALNGIDINTVNTNLMNGVNVQIDQLNRLLPNLPEEERKQIHEFKLIVGKKIQEFLVVIEKRRKKILNEIELDNLKLKELRIDNSPQAISYLHKLQRMRLRALETENMEIRNLRLKILTIIEEYKKSLYAYCHSKLRGQQVENPTDNFIIWINSIDTTESSDLKEGLQDLSRYSRQFINNVLSNPSNQNICTSVTRRSPVFALNMLPSEILHLILDKLNQKYDIVKFLTVSKLWAEIIVKILYYRPHINKKSQLDLFLRTMKLTSEETVFNYRLMIKRLNFSFVGDYMHDTELNYFVGCKNLERLTLVFCKHITSVPISAVLRGCKFLQSVDITGIRDVSDDVFDTLATYCPRVQGFYVPQARNVTFDSLRNFIVHSPMLKRIKITANNNMNDELVELLANKCPLLVEVDITLSPNVTDSSLLKLLTRLVQLREFRITHNTNITDNLFQELSKVVDDMPSLRLIDLSGCENITDKTIESIVNLAPKLRNVFLGKCSRITDASLFQLSKLGKNLQTVHFGHCFNITDNGVRALFHSCTRIQYVDFACCTNLTNRTLYELADLPKLKRIGLVKCTQMTDEGLLNMVSLRGRNDTLERVHLSYCSNLTIYPIYELLMSCPRLSHLSLTAVPSFLRPDITMYCRPAPSDFSENQRQIFCVFSGKGVHKLRHYLVNLTSPAFGPHVDVNDVLTKYIRSKNLIFNGETLEDALRRIITDLNQDSAAIIAATGLNQINGLNNDFLFQNINFERIDEVFSWYLNTFDGIRMSSEEVNSLLLQVNKTFCEDPFSDVDDDQDYVVAPGVNREINSEMCHIVRKFHELNDHIDDFEVNVASLVRVQFQFTGFLLHEMTQTYMQMIELNRQICLVQKTVQESGNIDYQKGLLIWRLLFIDKFIMVVQKYKLSTVVLRLYLKDNITLLTRQRELLIAHQRSAWNNNNDNDANRNANNIVNIVSDAGANDTSNNETNNGNDDNETENPNFWRQFGNRMQISPDQMRNLQMGLRNQNMVRNNNNNTIDESMPDTAIDSQMDEASGTPDEDML
B1: the binding entry in assay [2], in assay [3], in assay [4] and in assay [5] was “binds” in each case.
